Values quoted from earlier work, collected in patent publication US7186723B2, “Tyrosine kinase inhibitors” (Merck & Co., Inc., priority 2002, dated 2007).
Structures can show the parent of a compound that is named as a salt. At least one compound was matched to its structure with a doubt left.

Test system: retinal neovascularization in mice
Conditions: Arch. Ophthamol. 2001, 119:709–717

Row | Structure (SMILES) | development of retinal neovascularization
1 | Cc1c(C)c2c(c(C)c1O)CCC(C)(COc1ccc(CC3SC(=O)NC3=O)cc1)O2 (centres unmarked) [troglitazone] | inhibit the development of retinal neovascularization
2 | CN(CCOc1ccc(CC2SC(=O)NC2=O)cc1)c1ccccn1 (centres unmarked) [rosiglitazone maleate] | inhibit the development of retinal neovascularization
